One assay addresses T1, T18-HPF (S. aureus) (UniProt Q2FIN9).
T1 sequence: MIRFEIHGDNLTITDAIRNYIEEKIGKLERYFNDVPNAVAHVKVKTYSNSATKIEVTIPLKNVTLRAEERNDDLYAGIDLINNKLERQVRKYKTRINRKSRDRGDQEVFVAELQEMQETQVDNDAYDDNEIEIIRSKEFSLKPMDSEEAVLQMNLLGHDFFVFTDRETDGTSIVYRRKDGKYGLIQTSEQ
Kind of assay: two-hybrid; bacterial two-hybrid (BACTH): T25 and T18 fragments of B. pertussis Cya, coexpressed in E. coli Δcya; β-galactosidase activity and LB-X-Gal-IPTG agar after 24–30 h at 30 °C.

The target of assay [1] is T2, CyaA'-HPF(1–106) (S. aureus) (UniProt Q2FIN9).
T2 sequence: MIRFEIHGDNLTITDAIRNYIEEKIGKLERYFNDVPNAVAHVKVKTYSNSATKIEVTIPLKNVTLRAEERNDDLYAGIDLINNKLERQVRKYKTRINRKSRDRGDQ
The assay is described as above.

No constants are given. Whether binding was seen depends on the method and setting. For part of these data: A result given as binding can be weak or reduced; the word gives no strength.

In the case of “YwlG(C69S) in the BACTH system (S. aureus)”, the binding entry in the assay with T18-HPF (S. aureus) is “binds”.

For the substance T25-YwlG (S. aureus), the binding entry is listed as “no binding” in assay [1] and “binds” with T18-HPF (S. aureus).

(Values after publication PMC9522360, “Bidirectional sequestration between a bacterial hibernation factor and a glutamate metabolizing protein” (Proceedings of the National Academy of Sciences of the …, 2022).)
